Source: article PMC3472068, “Roles of the different components of magnesium chelatase in abscisic acid signal transduction” (Plant Molecular Biology, 2012)
These are yes or no findings as the source states them, for the method shown. For part of these data: Binding seen in cells or lysates may run through a third protein. Some binding calls cover weakened binding; strength is not graded here.

Amino acid sequences for entries named in this document (tags omitted).
UniProt Q9SJE1: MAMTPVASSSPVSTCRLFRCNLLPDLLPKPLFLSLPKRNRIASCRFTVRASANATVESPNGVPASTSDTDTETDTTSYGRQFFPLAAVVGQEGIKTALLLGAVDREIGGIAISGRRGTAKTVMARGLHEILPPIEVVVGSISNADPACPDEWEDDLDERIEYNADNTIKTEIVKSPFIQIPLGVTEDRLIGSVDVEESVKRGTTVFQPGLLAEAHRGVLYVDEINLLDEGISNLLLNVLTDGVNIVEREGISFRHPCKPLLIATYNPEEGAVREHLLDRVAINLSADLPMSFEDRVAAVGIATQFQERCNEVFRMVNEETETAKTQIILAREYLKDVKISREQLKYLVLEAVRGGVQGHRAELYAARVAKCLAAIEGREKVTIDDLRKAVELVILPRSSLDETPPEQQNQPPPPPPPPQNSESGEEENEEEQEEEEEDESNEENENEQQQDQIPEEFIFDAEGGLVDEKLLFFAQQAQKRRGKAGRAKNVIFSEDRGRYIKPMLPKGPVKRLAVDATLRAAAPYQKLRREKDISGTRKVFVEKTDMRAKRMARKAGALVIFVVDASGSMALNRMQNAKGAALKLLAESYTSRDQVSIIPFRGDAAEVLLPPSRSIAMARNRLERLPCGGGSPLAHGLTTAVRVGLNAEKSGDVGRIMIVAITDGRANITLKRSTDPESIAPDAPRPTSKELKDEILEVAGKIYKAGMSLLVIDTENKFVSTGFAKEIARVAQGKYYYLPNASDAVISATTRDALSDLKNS

B1: full length CHLI1 (I subunit of Mg-chelatase) linked to the Gal4 activation domain (protein, UniProt P16127 1-424)
chain: MASLLGTSSSAIWASPSLSSPSSKPSSSPICFRPGKLFGSKLNAGIQIRPKKNRSRYHVSVMNVATEINSTEQVVGKFDSKKSARPVYPFAAIVGQDEMKLCLLLNVIDPKIGGVMIMGDRGTGKSTTVRSLVDLLPEINVVAGDPYNSDPIDPEFMGVEVRERVEKGEQVPVIATKINMVDLPLGATEDRVCGTIDIEKALTEGVKAFEPGLLAKANRGILYVDEVNLLDDHLVDVLLDSAASGWNTVEREGISISHPARFILIGSGNPEEGELRPQLLDRFGMHAQVGTVRDADLRVKIVEERARFDSNPKDFRDTYKTEQDKLQDQISTARANLSSVQIDRELKVKISRVCSELNVDGLRGDIVTNRAAKALAALKGKDRVTPDDVATVIPNCLRHRLRKDPLESIDSGVLVSEKFAEIFS
B2: N-terminal half of CHLH/ABAR (amino acid residues 1-691) linked to the Gal4 DNA binding domain (domain or fragment, UniProt Q9FNB0 1-691)
chain: MASLVYSPFTLSTSKAEHLSSLTNSTKHSFLRKKHRSTKPAKSFFKVKSAVSGNGLFTQTNPEVRRIVPIKRDNVPTVKIVYVVLEAQYQSSLSEAVQSLNKTSRFASYEVVGYLVEELRDKNTYNNFCEDLKDANIFIGSLIFVEELAIKVKDAVEKERDRMDAVLVFPSMPEVMRLNKLGSFSMSQLGQSKSPFFQLFKRKKQGSAGFADSMLKLVRTLPKVLKYLPSDKAQDARLYILSLQFWLGGSPDNLQNFVKMISGSYVPALKGVKIEYSDPVLFLDTGIWHPLAPTMYDDVKEYWNWYDTRRDTNDSLKRKDATVVGLVLQRSHIVTGDDSHYVAVIMELEARGAKVVPIFAGGLDFSGPVEKYFVDPVSKQPIVNSAVSLTGFALVGGPARQDHPRAIEALKKLDVPYLVAVPLVFQTTEEWLNSTLGLHPIQVALQVALPELDGAMEPIVFAGRDPRTGKSHALHKRVEQLCIRAIRWGELKRKTKAEKKLAITVFSFPPDKGNVGTAAYLNVFASIFSVLRDLKRDGYNVEGLPENAETLIEEIIHDKEAQFSSPNLNVAYKMGVREYQDLTPYANALEENWGKPPGNLNSDGENLLVYGKAYGNVFIGVQPTFGYEGDPMRLLFSKSASPHHGFAAYYSYVEKIFKADAVLHFGTHGSLEFMPGKQVGMSDACFPDSLI
B3: middle region of CHLH/ABAR (amino acid residues 347-1038) linked to the Gal4 DNA binding domain (domain or fragment, UniProt Q9FNB0 347-1038)
chain: ELEARGAKVVPIFAGGLDFSGPVEKYFVDPVSKQPIVNSAVSLTGFALVGGPARQDHPRAIEALKKLDVPYLVAVPLVFQTTEEWLNSTLGLHPIQVALQVALPELDGAMEPIVFAGRDPRTGKSHALHKRVEQLCIRAIRWGELKRKTKAEKKLAITVFSFPPDKGNVGTAAYLNVFASIFSVLRDLKRDGYNVEGLPENAETLIEEIIHDKEAQFSSPNLNVAYKMGVREYQDLTPYANALEENWGKPPGNLNSDGENLLVYGKAYGNVFIGVQPTFGYEGDPMRLLFSKSASPHHGFAAYYSYVEKIFKADAVLHFGTHGSLEFMPGKQVGMSDACFPDSLIGNIPNVYYYAANNPSEATIAKRRSYANTISYLTPPAENAGLYKGLKQLSELISSYQSLKDTGRGPQIVSSIISTAKQCNLDKDVDLPDEGLELSPKDRDSVVGKVYSKIMEIESRLLPCGLHVIGEPPSAMEAVATLVNIAALDRPEDEISALPSILAECVGREIEDVYRGSDKGILSDVELLKEITDASRGAVSAFVEKTTNSKGQVVDVSDKLTSLLGFGINEPWVEYLSNTKFYRANRDKLRTVFGFLGECLKLVVMDNELGSLMQALEGKYVEPGPGGDPIRNPKVLPTGKNIHALDPQAIPTTAAMASAKIVVERLVERQKLENEGKYPETIALVLWGTDNI
B4: C-terminal half of CHLH/ABAR (amino acid residues 692-1381) linked to the Gal4 DNA binding domain (domain or fragment, UniProt Q9FNB0 692-1381)
chain: GNIPNVYYYAANNPSEATIAKRRSYANTISYLTPPAENAGLYKGLKQLSELISSYQSLKDTGRGPQIVSSIISTAKQCNLDKDVDLPDEGLELSPKDRDSVVGKVYSKIMEIESRLLPCGLHVIGEPPSAMEAVATLVNIAALDRPEDEISALPSILAECVGREIEDVYRGSDKGILSDVELLKEITDASRGAVSAFVEKTTNSKGQVVDVSDKLTSLLGFGINEPWVEYLSNTKFYRANRDKLRTVFGFLGECLKLVVMDNELGSLMQALEGKYVEPGPGGDPIRNPKVLPTGKNIHALDPQAIPTTAAMASAKIVVERLVERQKLENEGKYPETIALVLWGTDNIKTYGESLGQVLWMIGVRPIADTFGRVNRVEPVSLEELGRPRIDVVVNCSGVFRDLFINQMNLLDRAIKMVAELDEPVEQNFVRKHALEQAEALGIDIREAATRVFSNASGSYSANISLAVENSSWNDEKQLQDMYLSRKSFAFDSDAPGAGMAEKKQVFEMALSTAEVTFQNLDSSEISLTDVSHYFDSDPTNLVQSLRKDKKKPSSYIADTTTANAQVRTLSETVRLDARTKLLNPKWYEGMMSSGYEGVREIEKRLSNTVGWSATSGQVDNWVYEEANSTFIQDEEMLNRLMNTNPNSFRKMLQTFLEANGRGYWDTSAENIEKLKELYSQVEDKIEGIDR

Experiments:
[1] = target: T1, C-terminal half of CHLH/ABAR (amino acid residues 692-1381) linked to the Gal4 DNA binding domain (Arabidopsis thaliana) (UniProt Q9FNB0); assay: two-hybrid; yeast Gal4-based system (Clontech); truncated ABARs on BD (bait, pGBKT7), CHLI1 or CHLD on AD (prey, pGADT7); growth on SD medium lacking Leu, Trp, His and Ade, drop test and liquid β-galactosidase assay (ONPG); with or without 2 μM (±)ABA, which did not affect the interactions
T1 sequence: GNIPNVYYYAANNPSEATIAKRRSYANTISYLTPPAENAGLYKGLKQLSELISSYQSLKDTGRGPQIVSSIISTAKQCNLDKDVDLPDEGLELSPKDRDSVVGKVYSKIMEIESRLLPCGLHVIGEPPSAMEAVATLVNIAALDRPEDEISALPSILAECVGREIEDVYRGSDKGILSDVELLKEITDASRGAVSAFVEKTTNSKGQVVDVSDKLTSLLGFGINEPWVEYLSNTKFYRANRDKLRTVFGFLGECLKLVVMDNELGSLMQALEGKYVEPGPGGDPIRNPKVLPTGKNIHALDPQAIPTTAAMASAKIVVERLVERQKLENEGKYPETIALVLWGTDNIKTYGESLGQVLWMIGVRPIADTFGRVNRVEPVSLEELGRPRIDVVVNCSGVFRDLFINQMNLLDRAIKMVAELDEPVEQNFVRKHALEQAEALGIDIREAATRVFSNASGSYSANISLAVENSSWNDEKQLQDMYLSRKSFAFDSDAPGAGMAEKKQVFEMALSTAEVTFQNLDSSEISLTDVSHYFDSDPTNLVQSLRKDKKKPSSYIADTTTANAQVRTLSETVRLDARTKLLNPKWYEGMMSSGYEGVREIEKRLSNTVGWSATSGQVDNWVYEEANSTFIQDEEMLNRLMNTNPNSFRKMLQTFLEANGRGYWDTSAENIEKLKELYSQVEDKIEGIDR

[2] = target: T2, N-terminal half of CHLH/ABAR (amino acid residues 1-691) linked to the Gal4 DNA binding domain (Arabidopsis thaliana) (UniProt Q9FNB0); assay: as above
T2 sequence: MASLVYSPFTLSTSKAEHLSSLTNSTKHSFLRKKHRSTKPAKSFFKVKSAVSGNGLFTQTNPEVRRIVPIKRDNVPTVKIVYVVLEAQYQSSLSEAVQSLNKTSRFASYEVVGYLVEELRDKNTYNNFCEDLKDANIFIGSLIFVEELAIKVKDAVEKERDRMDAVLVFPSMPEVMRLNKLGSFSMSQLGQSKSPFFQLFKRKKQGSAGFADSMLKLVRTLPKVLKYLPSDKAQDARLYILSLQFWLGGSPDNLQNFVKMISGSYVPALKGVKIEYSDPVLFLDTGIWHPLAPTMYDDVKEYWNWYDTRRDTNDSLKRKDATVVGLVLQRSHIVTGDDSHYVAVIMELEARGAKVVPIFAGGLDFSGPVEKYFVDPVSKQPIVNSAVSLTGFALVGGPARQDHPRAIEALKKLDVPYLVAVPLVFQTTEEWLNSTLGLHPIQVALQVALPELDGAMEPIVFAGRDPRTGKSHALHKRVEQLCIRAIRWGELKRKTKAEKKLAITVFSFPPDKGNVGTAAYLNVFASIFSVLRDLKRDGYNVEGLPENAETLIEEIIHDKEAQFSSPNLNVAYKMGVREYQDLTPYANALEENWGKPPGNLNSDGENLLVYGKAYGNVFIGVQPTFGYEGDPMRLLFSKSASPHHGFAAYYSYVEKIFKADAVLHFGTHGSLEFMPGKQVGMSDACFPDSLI

[3] = target: T3, middle region of CHLH/ABAR (amino acid residues 347-1038) linked to the Gal4 DNA binding domain (Arabidopsis thaliana) (UniProt Q9FNB0); assay: as above
T3 sequence: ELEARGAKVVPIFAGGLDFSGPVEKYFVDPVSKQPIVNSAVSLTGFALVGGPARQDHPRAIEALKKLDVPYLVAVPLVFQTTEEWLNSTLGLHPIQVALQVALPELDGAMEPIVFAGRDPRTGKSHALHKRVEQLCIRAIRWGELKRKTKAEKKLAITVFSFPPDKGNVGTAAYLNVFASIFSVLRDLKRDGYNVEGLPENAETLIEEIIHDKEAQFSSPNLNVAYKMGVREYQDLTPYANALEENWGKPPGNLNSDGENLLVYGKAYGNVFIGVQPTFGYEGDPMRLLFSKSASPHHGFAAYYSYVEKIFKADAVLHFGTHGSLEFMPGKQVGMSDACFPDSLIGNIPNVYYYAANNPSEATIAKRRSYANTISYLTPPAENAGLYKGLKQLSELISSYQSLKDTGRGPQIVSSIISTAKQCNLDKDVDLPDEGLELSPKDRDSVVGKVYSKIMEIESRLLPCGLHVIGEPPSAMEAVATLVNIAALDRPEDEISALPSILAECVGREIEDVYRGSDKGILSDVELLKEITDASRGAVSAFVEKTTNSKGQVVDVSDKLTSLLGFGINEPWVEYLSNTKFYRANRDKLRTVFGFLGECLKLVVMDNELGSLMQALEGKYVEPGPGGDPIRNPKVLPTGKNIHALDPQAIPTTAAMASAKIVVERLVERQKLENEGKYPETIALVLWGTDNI

[4] = target: full length CHLD (D subunit of Mg-chelatase) linked to the Gal4 activation domain (Arabidopsis thaliana) (UniProt Q9SJE1); assay: co-IP; total proteins of the same co-transformed yeast cells; IP with anti-HA serum (HA-tagged CHLI1 or CHLD) and protein A/G Plus-agarose at 4 °C overnight, blot with anti-MYC serum (MYC-tagged ABARs); preimmune serum as control
[5] = target: T4, full length CHLI1 (I subunit of Mg-chelatase) linked to the Gal4 activation domain (Arabidopsis thaliana) (UniProt P16127); assay: as above
T4 sequence: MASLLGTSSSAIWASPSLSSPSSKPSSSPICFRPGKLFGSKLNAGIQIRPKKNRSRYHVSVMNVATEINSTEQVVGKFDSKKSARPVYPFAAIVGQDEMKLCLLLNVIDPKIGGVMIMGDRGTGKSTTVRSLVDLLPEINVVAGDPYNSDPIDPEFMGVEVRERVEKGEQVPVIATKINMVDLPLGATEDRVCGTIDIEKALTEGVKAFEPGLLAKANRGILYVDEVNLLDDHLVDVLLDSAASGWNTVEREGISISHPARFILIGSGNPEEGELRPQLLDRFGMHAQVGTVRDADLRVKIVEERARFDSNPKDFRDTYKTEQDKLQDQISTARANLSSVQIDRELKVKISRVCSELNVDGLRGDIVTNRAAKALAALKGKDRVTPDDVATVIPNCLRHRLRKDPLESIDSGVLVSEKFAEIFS

| Molecule | binding [1] | binding [2] | binding [3] | binding [4] | binding [5] |
| --- | --- | --- | --- | --- | --- |
| full length CHLD (D subunit of Mg-chelatase) linked to the Gal4 activation domain (from UniProt Q9SJE1 1-760) | binds | binds | binds | – | – |
| B1 | binds | binds | binds | – | – |
| B2 | – | – | – | binds | binds |
| B3 | – | – | – | binds | binds |
| B4 | – | – | – | binds | binds |
